{
  "source": "PubChem BioAssay AID2685",
  "about": "(National Center for Advancing Translational Sciences (NCATS), 2010)",
  "assay": "qHTS Assay for Lipid Storage Modulators in Drosophila S3 Cells;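 for cell number change: cells counted by Cell Tracker Red CMTPX staining in the red channel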",
  "details": "BODIPY lipid droplet fluorescence, 18-24 h; for cell number change: measured here: cell count max response, cells fed with added oleic acid",
  "summary_of_the_method": "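Drosophila S3 cells loaded with oleic acid (400 uM, as added) and compounds at several concentrations; lipid droplets imaged by 488-nm laser-scanning cytometry, 500–530 nm intensity and object ratio to cell channel. Percent activity normalized to 20 uM Triacsin C.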",
  "key": {"[1]": {"details": "measured here: lipid fluorescence (Fed channel) AC50, cells fed with added oleic acid"}, "[2]": {"details": "measured here: cell number channel AC50, cells fed with added oleic acid"}},
  "note": "The list shows a part of the results. The main result of the screen is listed elsewhere. These columns were measured beside it and carry no call. The list favours compounds with an active or inconclusive main result. The note in brackets gives the kind of curve behind each potency; many fits are weak.",
  "data": [
    {"smiles": "CSc1ncccc1C(=O)OCC(=O)N(CC(C)C)C1CCS(=O)(=O)C1", "note": "(configuration not stated)", "values": [
      {"measurement": "cell number change", "value": 17.7, "unit": "%"},
      {"measurement": "AC50", "setting": "[1]", "value": "29.1 µM [rising, single point]"}
    ]},
    {"smiles": "Cc1cccc(NC(=O)C2CCCN2C(=O)OCC(C)C)c1", "note": "(configuration not stated)", "values": [
      {"measurement": "cell number change", "value": -6.47, "unit": "%"},
      {"measurement": "AC50", "setting": "[2]", "value": "0.058 µM [falling, full curve, poor fit]"}
    ]},
    {"smiles": "Cc1cc(C(=O)N2CCCC(N3CCN(c4ccc(F)cc4)CC3)C2)c(C)o1", "note": "(configuration not stated)", "values": [
      {"measurement": "cell number change", "value": 9.23, "unit": "%"},
      {"measurement": "AC50", "setting": "[1]", "value": "4.11 µM [rising, partial curve]"}
    ]},
    {"smiles": "Clc1ccc2c(c1)C(N1CCNCC1)Cc1ccccc1S2", "note": "(configuration not stated)", "values": [
      {"measurement": "cell number change", "value": -83.8, "unit": "%"},
      {"measurement": "AC50", "setting": "[2]", "value": "18.4 µM [falling, single point]"},
      {"measurement": "AC50", "setting": "[1]", "value": "29.1 µM [falling, single point]"}
    ]},
    {"smiles": "COCCNS(=O)(=O)c1ccccc1", "values": [
      {"measurement": "cell number change", "value": 48.4, "unit": "%"},
      {"measurement": "AC50", "setting": "[2]", "value": "16.4 µM [rising, single point]"}
    ]},
    {"smiles": "O=C(O)c1cccc(NN=C2c3ccccc3-c3ccccc32)c1", "values": [
      {"measurement": "cell number change", "value": 34.6, "unit": "%"},
      {"measurement": "AC50", "setting": "[1]", "value": "0.00461 µM [falling, full curve, poor fit]"}
    ]},
    {"smiles": "COc1cccc(-c2sc3ccc(OC)cc3c2C#CCC(C)O)c1", "note": "(configuration not stated)", "values": [
      {"measurement": "cell number change", "value": 9.39, "unit": "%"},
      {"measurement": "AC50", "setting": "[2]", "value": "0.0326 µM [rising, full curve, poor fit]"},
      {"measurement": "AC50", "setting": "[1]", "value": "0.00517 µM [falling, full curve, poor fit]"}
    ]},
    {"smiles": "CCOC(=O)c1c(C)[nH]c(C)c1C(=O)COC(=O)c1ccc(OC)cc1", "values": [
      {"measurement": "AC50", "setting": "[2]", "value": "5.8 µM [rising, single point]"},
      {"measurement": "AC50", "setting": "[1]", "value": "6.51 µM [rising, partial curve]"}
    ]},
    {"smiles": "CCC(=O)N(Cc1cc2c(C)ccc(C)c2[nH]c1=O)C1CCCCC1", "values": [
      {"measurement": "AC50", "setting": "[2]", "value": "4.11 µM [rising, partial curve]"}
    ]},
    {"smiles": "CCc1nnc(NC(=O)c2cc(-c3ccc(C)o3)nc3ccccc23)s1", "values": [
      {"measurement": "cell number change", "value": -7.63, "unit": "%"},
      {"measurement": "AC50", "setting": "[1]", "value": "1.03 µM [falling, full curve]"}
    ]},
    {"smiles": "CN1CC(c2ccc(Cl)c(Cl)c2)[C@@]2(COc3ccccc3C2=O)[C@@]12C(=O)Nc1ccccc12", "note": "(some centres not stated)", "values": [
      {"measurement": "cell number change", "value": 37.4, "unit": "%"},
      {"measurement": "AC50", "setting": "[2]", "value": "32.6 µM [rising, single point]"}
    ]},
    {"smiles": "CN(Cc1cnn(C)c1)C(=O)c1cc2ccccc2oc1=O", "values": [
      {"measurement": "cell number change", "value": -23.4, "unit": "%"},
      {"measurement": "AC50", "setting": "[2]", "value": "3.26 µM [falling, single point]"}
    ]},
    {"smiles": "CN(CC(=O)N1CCCCCC1)S(=O)(=O)c1ccc(Br)cc1", "values": [
      {"measurement": "cell number change", "value": -30.4, "unit": "%"},
      {"measurement": "AC50", "setting": "[2]", "value": "7.31 µM [falling, partial curve, poor fit]"},
      {"measurement": "AC50", "setting": "[1]", "value": "18.4 µM [falling, single point]"}
    ]},
    {"smiles": "COc1cccc(OCC(O)CN2CCC(Cc3ccccc3)CC2)c1", "note": "(configuration not stated)", "values": [
      {"measurement": "cell number change", "value": 4.6, "unit": "%"},
      {"measurement": "AC50", "setting": "[1]", "value": "1.03 µM [falling, full curve, poor fit]"}
    ]},
    {"smiles": "CN(C)c1ccc(/C=C/c2nc3ccccc3c(=O)[nH]2)cc1", "values": [
      {"measurement": "AC50", "setting": "[2]", "value": "6.51 µM [rising, single point]"},
      {"measurement": "AC50", "setting": "[1]", "value": "29.1 µM [falling, single point]"}
    ]},
    {"smiles": "CN(C)c1nc(-c2cccs2)cc(C(F)(F)F)c1C#N", "values": [
      {"measurement": "cell number change", "value": 2.18, "unit": "%"}
    ]},
    {"smiles": "Cc1[nH]c2ccccc2c1-c1nc2ccccc2[nH]1", "values": [
      {"measurement": "cell number change", "value": -31, "unit": "%"},
      {"measurement": "AC50", "setting": "[2]", "value": "0.103 µM [falling, full curve, poor fit]"}
    ]},
    {"smiles": "O=C(NC1CCCCC1)NC1CCN(S(=O)(=O)c2ccc3c(c2)OCCO3)CC1", "values": [
      {"measurement": "cell number change", "value": 1.07, "unit": "%"},
      {"measurement": "AC50", "setting": "[1]", "value": "13 µM [falling, partial curve, poor fit]"}
    ]},
    {"smiles": "O=C(NCCc1ccccc1)NC(Cc1ccccc1)C(=O)O", "note": "(configuration not stated)", "values": [
      {"measurement": "cell number change", "value": 2.7, "unit": "%"},
      {"measurement": "AC50", "setting": "[1]", "value": "6.51 µM [falling, single point]"}
    ]},
    {"smiles": "Cc1nc(Nc2cccc(O)c2)c2c3c(sc2n1)CCC3", "values": [
      {"measurement": "AC50", "setting": "[1]", "value": "1.46 µM [rising, partial curve]"}
    ]},
    {"smiles": "O=C(Nc1ccc(Br)cn1)c1coc(=O)c(Br)c1", "values": [
      {"measurement": "cell number change", "value": -5.3, "unit": "%"}
    ]},
    {"smiles": "COc1ccc(NC(=S)NNC(=O)CCn2cc([N+](=O)[O-])cn2)cc1", "values": [
      {"measurement": "cell number change", "value": -19.7, "unit": "%"}
    ]},
    {"smiles": "COC(=O)c1ccc(NC(=O)COc2ccc(S(=O)(=O)NC(C)C)cc2)cc1", "values": [
      {"measurement": "cell number change", "value": -16, "unit": "%"}
    ]},
    {"smiles": "COc1ccc(/C=N/NC(=O)c2ccccc2OC)cc1COc1ccccc1[N+](=O)[O-]", "values": [
      {"measurement": "cell number change", "value": -19.1, "unit": "%"},
      {"measurement": "AC50", "setting": "[1]", "value": "0.112 µM [falling, full curve, poor fit]"}
    ]},
    {"smiles": "C=CCOc1ccc(/C=C/C(=O)OCC(=O)N2CCC(c3ccccc3)=N2)cc1", "values": [
      {"measurement": "cell number change", "value": -3.99, "unit": "%"},
      {"measurement": "AC50", "setting": "[1]", "value": "8.2 µM [rising, partial curve, poor fit]"}
    ]},
    {"smiles": "COc1ccc(CN2CCC(C(=O)Nc3ccc(Oc4ccccc4)nc3)CC2)cc1F", "values": [
      {"measurement": "cell number change", "value": -49.5, "unit": "%"},
      {"measurement": "AC50", "setting": "[2]", "value": "13 µM [falling, partial curve, poor fit]"}
    ]},
    {"smiles": "Cc1ccc(C)c(-c2nnc(NC(=O)CCS(=O)(=O)c3ccc(F)cc3)o2)c1", "values": [
      {"measurement": "AC50", "setting": "[2]", "value": "2.31 µM [rising, partial curve]"}
    ]},
    {"smiles": "CCOCCCNC(=O)CN(Cc1ccc(Cl)cc1)S(C)(=O)=O", "values": [
      {"measurement": "cell number change", "value": 1.89, "unit": "%"},
      {"measurement": "AC50", "setting": "[1]", "value": "2.59 µM [rising, single point]"}
    ]},
    {"smiles": "CCCN1C(=O)c2ccccc2NC1c1ccc(Cl)cc1", "note": "(configuration not stated)", "values": [
      {"measurement": "cell number change", "value": 12.8, "unit": "%"},
      {"measurement": "AC50", "setting": "[1]", "value": "11.6 µM [falling, partial curve]"}
    ]},
    {"smiles": "COc1ccc(N2CCN(C(=O)c3ccc(S(=O)(=O)N4CCOCC4)cc3)CC2)cc1", "values": [
      {"measurement": "cell number change", "value": -13.4, "unit": "%"},
      {"measurement": "AC50", "setting": "[2]", "value": "0.517 µM [falling, partial curve, poor fit]"},
      {"measurement": "AC50", "setting": "[1]", "value": "0.517 µM [falling, full curve, poor fit]"}
    ]}
  ]
}
